Results taken from PubChem BioAssay AID624297 (National Center for Advancing Translational Sciences (NCATS), 2012).
In all, about 340,000 compounds went through this assay and about 6,200 (1.8%) were called active. This list was built around the results that the source calls inconclusive (neither active nor inactive); the mix of calls is not that of the screen. Calls come from the whole dose curve; as a rule, active = well fitted activation curve with a large enough effect; inconclusive = small, poorly fitted or top-dose-only effect; inactive = no such curve, though single readings can be large or run the other way. Potencies of inconclusive entries are doubtful fits and often do not repeat.

Experiment: A quantitative high throughput screen for small molecules that induce DNA re-replication in SW480 colon adenocarcinoma cells. For re-replication activation: % of control where 0% means no effect. Note: nearly all actives have a fitted effect of over 55% in size.
Conditions: Hoechst DNA content imaging, 48 h; re-replication activation: at 46.1 µM (top of the series) unless noted
Summary of the method: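 SW480 cells exposed to compounds for 48 hr at 37 C, 5% CO2, then Hoechst-stained 40 min. Nuclear DNA content imaged by fluorescence scanning (405 nm excitation, 500-530 nm emission); re-replication scored as increased high-intensity nuclei.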
Potency is the fitted concentration of half-maximal effect.

| Structure (SMILES) | Potency | re-replication activation |
| --- | --- | --- |
| COc1ccc(-n2nc3c(N4CCC(C(=O)NCc5ccccc5C)CC4)nnc(C)c3c2C)cc1 | inconclusive: 18.4 µM [activator, partial curve, poor fit] |  |
| CCOCCn1c(SCc2cccc(C)c2)nc2c1c(=O)[nH]c(=O)n2C | inconclusive: 29.1 µM [activator, partial curve, poor fit] |  |
| Nc1ccccc1-c1nc2ccccc2s1 | inconclusive: 25.9 µM [activator, single point] |  |
| C=CC[C@@H](CC(=O)N[C@@H](CO)Cc1ccccc1)C(=O)NC[C@@H](OC(=O)[C@@H](CC=C)CC(=O)OC(C)(C)C)c1ccccc1 | inconclusive: 9.2 µM [activator, partial curve] |  |
| O=C(NCc1ccco1)c1ccccc1Nc1ccc(F)cc1 | inconclusive: 16.4 µM [activator, single point] |  |
| COCCN(CCOC)C(=O)c1ccc(NS(=O)(=O)c2ccc3[nH]c(=O)[nH]c3c2)cc1 |  | inactive: -27.1% |
| O=C(c1ccc(N2CCOCC2)cc1)N1CCCC(Nc2ccccc2)C1 (stereo not drawn) | inconclusive: 29.1 µM [activator, single point] |  |
| CSc1ccc(-c2nc(CSCC(=O)NC3CC3)c(C)o2)cc1 |  | inactive: 11.4% |
| Cc1cccc(N2CCN(S(=O)(=O)c3ccc(-c4ccc(=O)[nH]n4)o3)CC2)c1C | inconclusive: 7.31 µM [activator, partial curve] |  |
| CC[C@]12c3[nH]c4cc(-c5ccco5)ccc4c3CCN1C(=O)[C@@H](CC(=O)NC/C=C(\C)CCC=C(C)C)C[C@@H]2C(=O)N1CCN(C(=O)c2ccco2)CC1 |  | inactive: 0.802% |
| Cc1cnc(NC(=O)COc2ccc3c(c2)CCC3)s1 |  | inactive: -2.96% |
| COc1ccc([C@H]2CC(=O)C=C(c3cc(Br)ccc3OC)C2)cc1 | inconclusive: 29.1 µM [activator, single point] |  |
| Cn1ncc(SCc2ccccc2)c(Cl)c1=O | inconclusive: 29.1 µM [activator, single point] |  |
| CC1=CC(=O)C(C(C)C)=C/C1=N/OS(=O)(=O)c1ccccc1 | active: 0.731 µM |  |
| CC(C)(C)NCCOCCOc1ccccc1-c1ccccc1 |  | inactive: -4.97% |
| O=C(CN1C(=O)NC2(CCc3ccccc32)C1=O)NCc1ccccc1Cl (stereo not drawn) | inconclusive: 29.1 µM [activator, single point] |  |
| NC(N)=Nc1nc2ccccc2o1 | inconclusive: 29.1 µM [activator, single point] |  |
| Cc1c(Cl)cccc1NC(=S)N=Nc1c(O)n(CN2CCOCC2)c2ccccc12 | inconclusive: 2.06 µM [activator, partial curve] |  |
| CCC(C)Sc1cc(-c2nc3cc(C)ccn3c2NC2CCCCC2)ccc1OC (stereo not drawn) | inconclusive: 18.4 µM [activator, single point] |  |
| O=C1NC(=Nc2ccccc2)S/C1=C\c1cccnc1 | inconclusive: 29.1 µM [activator, single point] |  |
| O=C(Nc1ccc(NC(=O)c2ccccn2)cc1)C(=O)Nc1ccc2c(c1)OCCO2 |  | inactive: -14.9% |
| O=C(NC(=S)Nc1ccc(CN2CCOCC2)cc1)c1ccc2c(c1)OCCO2 | inconclusive: 29.1 µM [activator, single point] |  |

A different layout for part of the listing above:
Structure (SMILES)	Potency	re-replication activation
Cc1cnc(NC(=O)COc2ccc3c(c2)CCC3)s1		inactive: -2.96%
COc1ccc([C@H]2CC(=O)C=C(c3cc(Br)ccc3OC)C2)cc1	inconclusive: 29.1 µM [activator, single point]	
CC1=CC(=O)C(C(C)C)=C/C1=N/OS(=O)(=O)c1ccccc1	active: 0.731 µM	
O=C(Nc1ccc(NC(=O)c2ccccn2)cc1)C(=O)Nc1ccc2c(c1)OCCO2		inactive: -14.9%

Additional compounds:

| Structure (SMILES) | Potency | re-replication activation |
| --- | --- | --- |
| c1coc(CNc2c3c(nc4ccccc24)CCC3)c1 | inconclusive: 23.1 µM [activator, partial curve, poor fit] |  |
| CCCS(=O)(=O)Nc1ccc(Nc2c3ccccc3nc3ccccc23)c(OC)c1 | active: 7.31 µM |  |
| NC(=O)c1ccc(SCC(=O)OCC(=O)N2CCCC2=O)c([N+](=O)[O-])c1 |  | inactive: -2.29% |
| O=C(CC12CC3CC(CC(C3)C1)C2)N/N=C/c1ccc([N+](=O)[O-])o1 | inconclusive: 18.4 µM [activator, single point] |  |
| CCCCC(=O)NS(=O)(=O)c1ccc(N=NN2CCOCC2)cc1 |  | inactive: -11.6% |
| Cc1cccc(-n2ncc3c(NCc4ccco4)ncnc32)c1 | inconclusive: 23.1 µM [activator, single point] |  |
| O=c1oc(-c2ccc([N+](=O)[O-])cc2)nc2ccccc12 | inconclusive: 16.4 µM [activator, single point] |  |
| Cc1ccc(C)c(-c2cc(C(=O)NNC(=S)NCC(C)C)c3ccccc3n2)c1 |  | inactive: -4.2% |
| N#Cc1nc(-c2cccs2)oc1NCCN1CCOCC1 |  | inactive: -5.58% |
| Cc1cccc(CC(=O)NCC(=O)NCc2cc(=O)n(C)c(=O)n2C)c1 | inconclusive: 20.6 µM [activator, single point] |  |
| C#CCOCCOCCOCCNc1nc(N2CCN(C(=O)[C@H](CCCCN)n3cc(CN)nn3)CC2)nc(N2CCN(C(=O)[C@H](CC(N)=O)n3cc(C(N)[C@H](C)CC)nn3)CC2)n1 (stereo partly drawn) |  | inactive: -6.35% |
| Cc1cccc(-c2cc(C(=O)Nc3ccc4c(c3)OCCO4)c3ccccc3n2)c1 |  | inactive: -1.92% |
| Cn1c(=NC(=O)CCl)sc2ccccc21 | inconclusive: 18.4 µM [activator, single point] |  |
| COc1ccc(C(OCC(O)CNCCc2ccc(S(N)(=O)=O)cc2)c2ccc(OC)cc2)cc1 (stereo not drawn) |  | inactive: 29% |
| CSc1ccc(CN(C)CC(=O)NCc2ccccc2)cc1 | inconclusive: 5.8 µM [activator, single point] |  |
| CC(C)(C)CC(C)(C)c1cc(Cc2cc(C(C)(C)CC(C)(C)C)cc(-n3nc4ccccc4n3)c2O)c(O)c(-n2nc3ccccc3n2)c1 |  | inactive: -3.16% |
| COc1ccc(N2CCN(C(CNS(=O)(=O)c3ccccc3)c3ccccc3)CC2)cc1 (stereo not drawn) |  | inactive: -16.3% |
| Cc1nc(C)c(C(=O)N/N=C/c2cc(Br)ccc2O)s1 | inconclusive: 2.59 µM [activator, partial curve, poor fit] |  |
| Cc1ccc(/C=N/NC(=O)CCCOc2ccc(Cl)cc2Cl)cc1 | inconclusive: 29.1 µM [activator, single point] |  |
| COc1cc(/C=C(\C#N)C(=O)Nc2cccnc2)ccc1OC(C)C | inconclusive: 0.651 µM [activator, partial curve, poor fit] |  |
| O=C(Nc1c2c(nn1-c1ccccc1)CS(=O)(=O)C2)C1CCCC1 | inconclusive: 29.1 µM [activator, single point] |  |
